The values that follow come from publication PMC5105069, “Structural assemblies of the di- and oligomeric G-protein coupled receptor TGR5 in live cells: an MFIS-FRET and integrative modelling study” (Scientific Reports, 2016).

No constants are given. Whether binding was seen depends on the method and setting. In cells and extracts the contact can be indirect. Some entries that bind do so weakly or less than the wild type. Sequences can lack the tags named with a protein.

The assay concerns the target T1, TGR5 wt (His-tagged TGR5 wt and TGR5 wt-YFP), Q8TDU6.
T1 chain: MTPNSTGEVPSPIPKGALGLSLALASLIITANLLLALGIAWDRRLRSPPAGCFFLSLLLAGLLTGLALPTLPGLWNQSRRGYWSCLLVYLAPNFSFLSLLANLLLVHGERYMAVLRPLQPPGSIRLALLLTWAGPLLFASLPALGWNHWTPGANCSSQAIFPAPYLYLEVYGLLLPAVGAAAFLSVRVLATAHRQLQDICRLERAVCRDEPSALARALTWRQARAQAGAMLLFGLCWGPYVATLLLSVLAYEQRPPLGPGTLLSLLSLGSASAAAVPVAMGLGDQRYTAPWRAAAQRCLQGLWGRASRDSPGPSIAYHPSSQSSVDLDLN
Description: co-IP; HEK293 cells co-transfected with TGR5-His and a TGR5-YFP variant; IP with anti-His antibody; precipitate deglycosylated with N-glycosidase-F; Western blot with anti-GFP and anti-His; densitometry as GFP to His levels (n = 4). To be noted: remark: other sources report otherwise. (In general: In western blotting, separated proteins are transferred to a membrane and probed.)

B1: TGR5 wt (His-tagged TGR5 wt and TGR5 wt-YFP), Q8TDU6 1-330 (receptor)
chain: MTPNSTGEVPSPIPKGALGLSLALASLIITANLLLALGIAWDRRLRSPPAGCFFLSLLLAGLLTGLALPTLPGLWNQSRRGYWSCLLVYLAPNFSFLSLLANLLLVHGERYMAVLRPLQPPGSIRLALLLTWAGPLLFASLPALGWNHWTPGANCSSQAIFPAPYLYLEVYGLLLPAVGAAAFLSVRVLATAHRQLQDICRLERAVCRDEPSALARALTWRQARAQAGAMLLFGLCWGPYVATLLLSVLAYEQRPPLGPGTLLSLLSLGSASAAAVPVAMGLGDQRYTAPWRAAAQRCLQGLWGRASRDSPGPSIAYHPSSQSSVDLDLN
As to B1, the binding result was “binds”.
